Record: PubChem BioAssay AID1224830 (NIAID, 2016)

Purpose: 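Host factors that control LPS-induced TNF expression in human macrophages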 (primary screen)
Cells: human THP-1 monocytic leukaemia cells, TNF dual-luciferase reporter clone, PMA-differentiated to macrophage-like cells
Reagent: siRNA pool against human genes, 50 nM
Timing: LPS for 4 h, given about 3 days after siRNA transfection
Treatment: bacterial LPS (TLR4 ligand), 10 ng/ml
Measured: 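Ratio of firefly to renilla light, scaled to the plate median and expressed as a robust z-score per replicate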
Direction: TNF reporter robust z-score: higher = stronger TNF reporter response to LPS
Call rule: 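Each well counts as active if its z-score is over 2.8 or under -1.5; controls are left without a call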
Shown is one part, drawn at random, of about 18,000 deposited reagents. Over the whole deposit, about 2,900 (16%) were called active. 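Calls are made per well; low scores hint the gene aids the LPS response, high scores that it dampens it.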 Entries without a mark were called inactive. Repeated entries: four replicate wells of each siRNA pool.

For CCDC142 (coiled-coil domain containing 142), the entry reads TNF reporter robust z-score -0.78.
Depletion of CCDC142 (coiled-coil domain containing 142) gave: TNF reporter robust z-score -0.98.
With knock-down of CCDC142 (coiled-coil domain containing 142), the screen gave TNF reporter robust z-score -1.75 (active).
CCDC142 (coiled-coil domain containing 142) scored TNF reporter robust z-score -1.44.
Against ARL6 (ARF like GTPase 6), the values are TNF reporter robust z-score -1.17.
Depletion of ARL6 (ARF like GTPase 6) resulted in: TNF reporter robust z-score -0.15.
After knock-down of ARL6 (ARF like GTPase 6), the record shows TNF reporter robust z-score -0.64.
Silencing of ARL6 (ARF like GTPase 6) resulted in: TNF reporter robust z-score -1.57 (active).
Against MORC4 (MORC family CW-type zinc finger 4), the values are TNF reporter robust z-score 0.26.
Knock-down of MORC4 (MORC family CW-type zinc finger 4) came out at: TNF reporter robust z-score 0.24.
Against MORC4 (MORC family CW-type zinc finger 4), the values are TNF reporter robust z-score 1.28.
MORC4 (MORC family CW-type zinc finger 4) showed TNF reporter robust z-score 3.39 (active).
Against SPINK6 (serine peptidase inhibitor Kazal type 6), the entry reads TNF reporter robust z-score 0.68.
With knock-down of SPINK6 (serine peptidase inhibitor Kazal type 6), the screen gave TNF reporter robust z-score -0.77.
SPINK6 (serine peptidase inhibitor Kazal type 6) gave TNF reporter robust z-score -0.49.
Knock-down of SPINK6 (serine peptidase inhibitor Kazal type 6) came out at: TNF reporter robust z-score -0.25.
POLR3E (RNA polymerase III subunit E) scored TNF reporter robust z-score -0.35.
Silencing of POLR3E (RNA polymerase III subunit E) resulted in: TNF reporter robust z-score 0.49.
After knock-down of POLR3E (RNA polymerase III subunit E) the results were TNF reporter robust z-score 1.15.
With knock-down of POLR3E (RNA polymerase III subunit E) the results were TNF reporter robust z-score 1.28.
For OR8D2 (olfactory receptor family 8 subfamily D member 2) the deposit lists TNF reporter robust z-score -1.06.
Knock-down of OR8D2 (olfactory receptor family 8 subfamily D member 2) came out at: TNF reporter robust z-score -1.04.
Silencing of OR8D2 (olfactory receptor family 8 subfamily D member 2) gave: TNF reporter robust z-score -1.21.
OR8D2 (olfactory receptor family 8 subfamily D member 2) showed TNF reporter robust z-score -1.39.
Depletion of STX7 (syntaxin 7) gave: TNF reporter robust z-score 2.94 (active).
STX7 (syntaxin 7) gave TNF reporter robust z-score 0.74.
STX7 (syntaxin 7) gave TNF reporter robust z-score 0.02.
Knock-down of STX7 (syntaxin 7) came out at: TNF reporter robust z-score 0.28.
Knock-down of TLNRD1 (talin rod domain containing 1) gave: TNF reporter robust z-score 0.03.
With knock-down of TLNRD1 (talin rod domain containing 1), the record shows TNF reporter robust z-score 0.4.
TLNRD1 (talin rod domain containing 1) showed TNF reporter robust z-score 0.12.
Depletion of TLNRD1 (talin rod domain containing 1) resulted in: TNF reporter robust z-score -0.17.
